In brackets after ≈: the same amount, converted by molar mass. Further values from the same series stand in other lists.
Tested on: Escherichia coli
Test: minimum inhibitory concentration (MIC)
Method: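 Broth microdilution MIC (Sensititre BOPO7F bovine plate, CLSI methods) of 19 antimicrobials against field isolates of P. multocida, M. haemolytica, H. somni (deep nasopharyngeal swabs) and E. coli, Enterococcus spp. (rectal swabs) from weaned dairy heifers. Incubation 16-24 h at 35 C. MIC is the lowest concentration preventing visible growth. Values with <= or > lie at the tested range limits. Trimethoprim-sulfamethoxazole is given as the trimethoprim component of a 1:19 mixture.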

CN[C@@H]1[C@H](O)[C@H](NC)[C@H]2O[C@@]3(O)C(=O)C[C@@H](C)O[C@H]3O[C@@H]2[C@H]1O [Spectinomycin]
Settings	minimum inhibitory concentration [µg/mL]
isolate (source animal id): 1	16 (≈ 48.1 µM)
isolate (source animal id): 2	32 (≈ 96.3 µM)
isolate (source animal id): 3	16 (≈ 48.1 µM)
isolate (source animal id): 4	16 (≈ 48.1 µM)
isolate (source animal id): 5	> 64
isolate (source animal id): 6	32 (≈ 96.3 µM)
isolate (source animal id): 7	32 (≈ 96.3 µM)
isolate (source animal id): 17	> 64
isolate (source animal id): 18	16 (≈ 48.1 µM)
isolate (source animal id): 19	16 (≈ 48.1 µM)
isolate (source animal id): 20	16 (≈ 48.1 µM)
isolate (source animal id): 21	16 (≈ 48.1 µM)
isolate (source animal id): 22	16 (≈ 48.1 µM)
isolate (source animal id): 23	16 (≈ 48.1 µM)
isolate (source animal id): 24	16 (≈ 48.1 µM)
isolate (source animal id): 25	> 64
isolate (source animal id): 26	16 (≈ 48.1 µM)
isolate (source animal id): 27	> 64
isolate (source animal id): 28	16 (≈ 48.1 µM)
isolate (source animal id): 29	> 64
isolate (source animal id): 30	> 64
isolate (source animal id): 31	32 (≈ 96.3 µM)
isolate (source animal id): 32	64 (≈ 193 µM)
isolate (source animal id): 33	> 64
isolate (source animal id): 34	16 (≈ 48.1 µM)
isolate (source animal id): 35	> 64
isolate (source animal id): 36	16 (≈ 48.1 µM)
isolate (source animal id): 37	16 (≈ 48.1 µM)
isolate (source animal id): 38	16 (≈ 48.1 µM)
isolate (source animal id): 39	> 64
isolate (source animal id): 40	16 (≈ 48.1 µM)
isolate (source animal id): 41	> 64
isolate (source animal id): 42	16 (≈ 48.1 µM)
isolate (source animal id): 43	> 64
isolate (source animal id): 44	16 (≈ 48.1 µM)
isolate (source animal id): 45	> 64
isolate (source animal id): 46	16 (≈ 48.1 µM)
isolate (source animal id): 47	16 (≈ 48.1 µM)
isolate (source animal id): 48	16 (≈ 48.1 µM)
isolate (source animal id): 49	> 64
isolate (source animal id): 50	> 64
isolate (source animal id): 51	32 (≈ 96.3 µM)
isolate (source animal id): 52	32 (≈ 96.3 µM)
isolate (source animal id): 53	32 (≈ 96.3 µM)
isolate (source animal id): 54	16 (≈ 48.1 µM)
isolate (source animal id): 55	16 (≈ 48.1 µM)
isolate (source animal id): 56	16 (≈ 48.1 µM)
isolate (source animal id): 57	> 64
isolate (source animal id): 58	16 (≈ 48.1 µM)
isolate (source animal id): 59	16 (≈ 48.1 µM)
isolate (source animal id): 60	16 (≈ 48.1 µM)
isolate (source animal id): 61	> 64
isolate (source animal id): 62	16 (≈ 48.1 µM)
isolate (source animal id): 63	16 (≈ 48.1 µM)
isolate (source animal id): 64	16 (≈ 48.1 µM)
isolate (source animal id): 65	32 (≈ 96.3 µM)
isolate (source animal id): 66	> 64
isolate (source animal id): 67	16 (≈ 48.1 µM)
isolate (source animal id): 68	16 (≈ 48.1 µM)
isolate (source animal id): 69	16 (≈ 48.1 µM)
isolate (source animal id): 70	16 (≈ 48.1 µM)
isolate (source animal id): 71	16 (≈ 48.1 µM)
isolate (source animal id): 72	16 (≈ 48.1 µM)
isolate (source animal id): 73	16 (≈ 48.1 µM)
isolate (source animal id): 74	16 (≈ 48.1 µM)
isolate (source animal id): 75	16 (≈ 48.1 µM)
isolate (source animal id): 76	> 64
isolate (source animal id): 77	16 (≈ 48.1 µM)
isolate (source animal id): 78	> 64
isolate (source animal id): 79	16 (≈ 48.1 µM)
isolate (source animal id): 80	16 (≈ 48.1 µM)
isolate (source animal id): 81	> 64
isolate (source animal id): 82	16 (≈ 48.1 µM)
isolate (source animal id): 83	16 (≈ 48.1 µM)
isolate (source animal id): 84	16 (≈ 48.1 µM)
isolate (source animal id): 85	16 (≈ 48.1 µM)
isolate (source animal id): 86	> 64
isolate (source animal id): 87	≤ 8
isolate (source animal id): 88	≤ 8
isolate (source animal id): 89	16 (≈ 48.1 µM)
isolate (source animal id): 90	16 (≈ 48.1 µM)
isolate (source animal id): 91	≤ 8
isolate (source animal id): 92	16 (≈ 48.1 µM)
isolate (source animal id): 93	16 (≈ 48.1 µM)
isolate (source animal id): 94	> 64
isolate (source animal id): 95	16 (≈ 48.1 µM)
isolate (source animal id): 96	≤ 8
isolate (source animal id): 97	16 (≈ 48.1 µM)
isolate (source animal id): 189	16 (≈ 48.1 µM)
isolate (source animal id): 190	16 (≈ 48.1 µM)
isolate (source animal id): 191	16 (≈ 48.1 µM)
isolate (source animal id): 192	16 (≈ 48.1 µM)
isolate (source animal id): 193	16 (≈ 48.1 µM)
isolate (source animal id): 194	16 (≈ 48.1 µM)
isolate (source animal id): 195	16 (≈ 48.1 µM)
isolate (source animal id): 196	16 (≈ 48.1 µM)
isolate (source animal id): 197	16 (≈ 48.1 µM)
isolate (source animal id): 198	64 (≈ 193 µM)
isolate (source animal id): 199	16 (≈ 48.1 µM)
isolate (source animal id): 200	16 (≈ 48.1 µM)
isolate (source animal id): 201	16 (≈ 48.1 µM)
isolate (source animal id): 202	16 (≈ 48.1 µM)
isolate (source animal id): 203	16 (≈ 48.1 µM)
isolate (source animal id): 204	16 (≈ 48.1 µM)
isolate (source animal id): 205	16 (≈ 48.1 µM)
isolate (source animal id): 206	16 (≈ 48.1 µM)
isolate (source animal id): 207	16 (≈ 48.1 µM)
isolate (source animal id): 208	16 (≈ 48.1 µM)
isolate (source animal id): 209	16 (≈ 48.1 µM)
isolate (source animal id): 210	> 64
isolate (source animal id): 211	16 (≈ 48.1 µM)
isolate (source animal id): 212	16 (≈ 48.1 µM)
isolate (source animal id): 213	16 (≈ 48.1 µM)
isolate (source animal id): 214	16 (≈ 48.1 µM)
isolate (source animal id): 215	16 (≈ 48.1 µM)
isolate (source animal id): 216	32 (≈ 96.3 µM)
isolate (source animal id): 217	≤ 8
isolate (source animal id): 218	16 (≈ 48.1 µM)
isolate (source animal id): 219	16 (≈ 48.1 µM)
isolate (source animal id): 220	16 (≈ 48.1 µM)

Source: the supplement of paper PMC8612539
